Sequences and labels used below:
B1: RecC, M. smegmatis (protein, UniProt A0QS30 1-1085)
chain: MALHLHRAERTDLLADGLAALLSDPLPDPFATELVLVPAKGVERWLSQRLSNRLGVCAAVEFRNPRSLIAELTGTADDDPWSPDAMVWPLLGVIDESLDEPWCATLATHLGHFEMGEEYELRQGRRYAVARRLAGLFASYARQRPQLLVDWDGLPDDLAWQKALWQALCERIDADPPHIRHAKTLVQLHESPTDLPQRLSLFGHTRLPATEVELLTALATHHDLHLWLPHPSDTLWQALSTRKGPLPRREDTSHRDVGHPLLATLGRDLREMQRLLPEPDTDEFRGRSEYPDTLLGWLQSDIAADAVRPQGRHHRREDRSIQVHSCHGPSRQIDVLREVLLGLLADDPTLEPRDILVMCPDIETYAPLITAGFGLGDVVPRTRGAHINLSAHPAHKLRVRLADRALVQTNPLLAVAAQLLALAGGRATASEVLNLAESAPVRARFGFTDDDLDAITAWTREANIRWGFDQEHRRPYGVEFLHNTWRFGIDRVLAGVAMSDDSHAWLGTTLPLDDVSSNRVELAGRFADFVEKLRRTVDQLSGTRPLHEWLDALTAGIDALALADEDWPAAQMQREFAEITARAGDTATSLRLADVRALLDRHLAGRPTRANFRTGTLTVCTMVPMRSVPHRVVCLVGLDDGVFPRLGAVDGDDALARDPMTGERDIRSEDRQLLLDAILAATQTLVITYTGANEYSGQARPPAVPLAELIDTLKITTEDSALDVLTRHPLQPFDKRNVIPGALVPDEPFTFDQTALVAARASSGERAMRPAFFSDPLPPPLPDDVALEDLLNFFKDPVKGFFRALDYTLPWDVEGVSDVMPVDIDALEEWTVGDRMLSDILRGMTPAAAQQAEWRRGTLPPGQLGWRRAIALRDQCALLAAEALGFRDTDGQAYDVDIDLGGGRRLTGTVSPVFGDRLVSVTYSKLGGKHLLQSWIPLLALAAGYPDRDWLAVCIGRPARGTTPRVEGLGGPDNPVDLLADLVAIYDAGRREPLPLPVKTSYAWAEARHCGDDPEQKAGFRWRSGRYPGEDAEPAHVRAWGRDAWLRDLMQPLRPGEEFEGETHRLGAYSSRLWLPLLRAERPVR
B2: RecD, M. smegmatis (protein, UniProt A0QS28 1-554)
chain: MSLLEAFAEILEPADVHVAQRLTVLADEPDASVELAVALAVRALRGGSVCVDLRSVAGQVELPDLPWPDPDAWLAALAASPLLGQPPVLRLFGDLLYLDRYWLEEQQVCDDVLALVSARPGGAVPDVSRLFGAGFEEQRAAAKVALSQGLTVLTGGPGTGKTTTVARLLALLAEQAALAGKPSPRIALAAPTGKAAARLQEAVQLEIDQLDLIERRRLTGLHATTLHRLLGPRPDTSSRFRHHRANRLPHDVIVVDETSMVSLTMMARLLEAVRPQTRLVLVGDPDQLASVEAGAVLADLVEGLGSRGVAELKTSHRFGESIGALASAIRTGDADAALAVLAAGGEHIEWVHEDPVEQLREVVVPHAMRLRQAAILGDQREALATLDEHRLLCAHRRGPAGVDHWNRQVQRWLGEETGEPLWGSWYVGRPILVTANDYGLKLYNGDTGVVVATPDGMRAVIGDAGTFATGRLTDVETMHAMTIHKSQGSQADEVTVLLPSEDSRLLTRELFYTAVTRAKTRVRVVGAEAEVRAAIERQAVRATGLRKRLRPAGV
B3: RecA, M. smegmatis (protein, UniProt Q59560 1-349)
chain: MAQQAPDREKALELAMAQIDKNFGKGSVMRLGEEVRQPISVIPTGSISLDVALGIGGLPRGRVIEIYGPESSGKTTVALHAVANAQAAGGIAAFIDAEHALDPEYAKKLGVDTDSLLVSQPDTGEQALEIADMLVRSGALDIIVIDSVAALVPRAEIEGEMGDSHVGLQARLMSQALRKMTGALNNSGTTAIFINQLREKIGVMFGSPETTTGGKALKFYASVRLDVRRIETLKDGTDAVGNRTRVKVVKNKVSPPFKQAEFDILYGQGISREGSLIDMGVEHGFIRKSGSWFTYEGEQLGQGKENARKFLLENTDVANEIEKKIKEKLGIGAVVTAEADDVLPAPVDF
B4: substrate adaptor SmpB, M. smegmatis (protein, UniProt A0QU63 1-161)
chain: MTKKSASSNNKVVATNRKARHNYTILDTYEAGIVLMGTEVKSLREGQASLADAFATVDDGEIWLRNVHIAEYHHGTWTNHAPRRNRKLLLHRKQIDNLIGKIRDGNLTLVPLSIYFTDGKVKVELALARGKQAHDKRQDLARRDAQREVIRELGRRAKGKI
B5: RuvC (Holliday junction resolvase), M. smegmatis (protein, UniProt A0QWH4 1-185)
chain: MRVMGVDPGLTRCGLSMIESGKGRQVIALDVDVVRTPADTPLQKRLLTISDAAEHWMDTHRPDVIAIERVFANQNANTAMGTAQAGGVIALAAAKRDIEVHFHTPSEVKAAVTGSGRADKSQVTEMVTRILALQAKPTPADAADALALAICHCWRAPMIARMAAAEAMAEEQRRKFQAKIKAARG
B6: RadA (DNA repair protein), M. smegmatis (protein, UniProt A0R563 1-466)
chain: MAGSKIRSQYRCSECQHVAPKWVGRCANCGTWGTVDEVAVLAGNNKLNGAARRSVAPTSPAVPITSIDPGVTRHYPTGVSELDRVLGGGLVAGSVTLLAGDPGVGKSTLLLEVANRWAHSGKRALYLSGEESAGQIRLRAERTGCTHDQVYLAAESDLQIALGHIDEVKPSLVVVDSVQTMSTTEADGVTGGVTQVRAVTTSLTAYAKAAVGDPAVAMILVGHVTKDGAIAGPRSLEHLVDVVLHFEGDRASSLRMVRGVKNRFGAADEVGCFQLHDNGIECVSDPSGLFLDQRPLAVPGTAVTVTLDGKRPMIGEVQALVSPPAGPPRRAVSGIDSARAAMIGAVLQTRCRMPINSNDLYLSTVGGMRLTDPSADLAVALAIASAYFDIAMPMKAIAIGEVGLAGDLRRVTGMDRRLSEAARLGFTTAVVPPGVTSAPAGLKVVAADNIRAAVQTMREIAIAGAQ

Chains of the proteins cited; added tags and fusions are not shown. Lines headed by an entry give the natural chain unless they say otherwise; changes in a name come on top.
UniProt P9WPB9, whole entry, stated change not applied: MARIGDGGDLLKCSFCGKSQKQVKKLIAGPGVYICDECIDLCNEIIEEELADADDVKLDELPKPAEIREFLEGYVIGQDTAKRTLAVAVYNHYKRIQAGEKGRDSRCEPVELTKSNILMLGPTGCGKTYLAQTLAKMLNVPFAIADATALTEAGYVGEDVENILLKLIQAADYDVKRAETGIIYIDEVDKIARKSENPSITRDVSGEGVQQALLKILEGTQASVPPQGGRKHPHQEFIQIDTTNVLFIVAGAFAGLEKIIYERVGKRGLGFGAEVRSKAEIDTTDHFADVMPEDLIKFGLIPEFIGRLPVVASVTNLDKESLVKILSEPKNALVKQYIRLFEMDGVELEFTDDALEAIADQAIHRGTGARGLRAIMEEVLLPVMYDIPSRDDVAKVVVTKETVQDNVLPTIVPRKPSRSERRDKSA

No constants are given. Whether binding was seen depends on the method and setting. Binding seen in cells or lysates may run through a third protein. A yes stands for co-enrichment or nearness to the bait. Other partners may have been found. A no says only that the protein was not detected with the bait.

The values below come from publication PMC7847540.

The assay has as its target N-terminally 6×His-tagged ClpX (His6ClpX) from M. tuberculosis, overproduced in M. smegmatis (M. tuberculosis) (UniProt P9WPB9). Description: affinity purification with mass spectrometry.
B1: the binding entry is on record as “binds”.

On to B2, for which the binding result was “binds”. As to B3, the binding entry was “binds”. Take B4: the binding result was “no binding”.

For the molecule B5, the binding result is “binds”. Regarding B6, the binding result is “binds”.
